The subject of the test is BDF1 mice, B16 melanoma ip, median survival T/C. Put plainly: NCI In Vivo Anticancer Drug Screen. Data for tumor model B16 Melanoma (intraperitoneal) in B6D2F1 (BDF1) mice. As to conditions: T/C endpoint: median survival time, higher T/C = longer survival. The method in brief:
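Each result divides a survival or tumor-size measurement in the compound-treated group by the same measurement in the vehicle group.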

Where [1] appears, read: dose: 400.0 mg/kg/injection, schedule: Q01DX009 (ip), vehicle: saline with Tween-80.
[2] abbreviates: dose: 25.0 mg/kg/injection, schedule: Q01DX009 (ip), vehicle: water.

The list is a part of this screen's results and no random one: it is rich in T/C values a quarter to a half above the control, in often repeated tests (any T/C) and in doses without a T/C. Further doses and runs are listed elsewhere. T/C: endpoint of the treated group in % of that of the vehicle group. Some entries give survivors of the animals treated and no T/C: the source files T/C as zero there, which appears to mark a toxic dose or a test without result, not a measured value. Some survivor counts are full or nearly so, which does not show that the dose was tolerated: survival well below the control is almost never listed, so the zero probably covers shortened survival too. Survivors were counted at the toxicity check, usually on the fifth day, unless a day is given; later deaths do not show. Schedule codes are those of the source, taken here to give the interval after Q, in days (D) or hours (H), and the number of doses after X. Some entries hold several experiments; their values stand side by side, smallest first. Where survival is the endpoint, the PubChem record calls one and a half times the control and up active, and a quarter to a half above the control has no call in these data; cut-offs in other NCI protocols can differ. Some T/C values are followed by the survivors on the day toxicity was checked, most often the fifth; where none is given, no animal had died by that day.

As for `COC(=O)C(N)Cc1ccc(O)c(O)c1` (stereo unspecified), the T/C was 131 % of control (dose: 400.0 mg/kg/injection, schedule: Q08HX018 (ip), vehicle: water) and 146 % of control [8 of 10 alive] (dose: 600.0 mg/kg/injection, schedule: Q01DX014 (ip), vehicle: saline). Also, the survivor count reads like this: (dose: 600.0 mg/kg/injection, schedule: Q01DX012 (ip), vehicle: saline) 5 of 10; (dose: 800.0 mg/kg/injection, schedule: Q08HX018 (ip), vehicle: water) 4 of 10; (dose: 800.0 mg/kg/injection, schedule: Q08HX030 (ip), vehicle: saline) 2 of 10; (dose: 1600.0 mg/kg/injection, schedule: Q08HX018 (ip), vehicle: water) 0 of 10.
As to `O=C1C=C(N2CC2)C(=O)C(N2CC2)=C1N1CC1`, the T/C runs as follows: (dose: 12.0 micrograms/kg/injection, schedule: Q01DX009 (ip), vehicle: saline) 126 % of control; (dose: 25.0 micrograms/kg/injection, schedule: Q01DX009 (ip), vehicle: saline) 126 and 130 % of control. Also, where the note is “dose: 50.0 micrograms/kg/injection, schedule: Q01DX009 (ip), vehicle: saline”, the survivor count is on record as 10 of 10.
Take `O=C(Nc1ccccc1C(F)(F)F)c1ccc(Cl)cc1Cl`: the survivor count under setting [1] was 10 of 10.
As to `Nc1n[n+](-c2ccccc2)no1`, the T/C runs as follows: (dose: 12.5 mg/kg/injection, schedule: Q01DX009 (ip), vehicle: water) 127 % of control; under setting [2], 137 % of control [9 of 10 alive]. Besides, the survivor count was 9 of 10 under setting [2]; 7 of 10 and 10 of 10 (dose: 50.0 mg/kg/injection, schedule: Q01DX009 (ip), vehicle: water).
In the case of `COc1ccc2c(c1OC(C)=O)-c1cc(OC(C)=O)cc3c1C(C2)N(C(=O)CN(CCCl)CCCl)CC3` (stereo unspecified), under “dose: 12.5 mg/kg/injection, schedule: Q04DX003 (ip), vehicle: DMSO”, the T/C was 140 % of control. Also, the survivor count was 10 of 10 (dose: 50.0 mg/kg/injection, schedule: Q04DX003 (ip), vehicle: DMSO) and 7 of 10 (dose: 100.0 mg/kg/injection, schedule: Q04DX003 (ip), vehicle: DMSO).
Regarding `C=C(CCCCC)C(=O)/C=C/c1ccc(Cl)cc1`, the survivor count (dose: 300.0 mg/kg/injection, schedule: Q04DX003 (ip), vehicle: Klucel (hydroxypropylcellulose) (HPC)) is reported as 10 of 10.
Take `C=CCC(CC)C(=O)Cl` (stereo unspecified): the survivor count (dose: 200.0 mg/kg/injection, schedule: Q04DX003 (ip), vehicle: other) is on record as 4 of 10.
As for `CO[C@H]1C[C@H](O[C@H]2CC[C@]3(C=O)[C@H]4CC[C@]5(C)[C@@H](C6=CC(=O)OC6)CC[C@]5(O)[C@@H]4CC[C@]3(O)C2)O[C@H](C)[C@H]1O[C@@H]1O[C@H](CO)[C@@H](O)[C@H](O)[C@H]1O`, the survivor count (dose: 4.0 mg/kg/injection, schedule: Q04DX003 (ip), vehicle: saline) is listed as 6 of 10.
Consider `C[C@]12CC[C@@H]3c4ccc(OC(=O)Cc5ccc(N(CCCl)CCCl)cc5)cc4CC[C@H]3[C@@H]1CC[C@@H]2OC(=O)Cc1ccc(N(CCCl)CCCl)cc1`, for which the survivor count (dose: 64.0 mg/kg/injection, schedule: Q02DX009 (ip), vehicle: Klucel (hydroxypropylcellulose) (HPC)) was 10 of 10; the survivor count (dose: 128.0 mg/kg/injection, schedule: Q02DX009 (ip), vehicle: Klucel (hydroxypropylcellulose) (HPC)) is 10 of 10; the survivor count (dose: 256.0 mg/kg/injection, schedule: Q02DX009 (ip), vehicle: Klucel (hydroxypropylcellulose) (HPC)) is on record as 10 of 10; the survivor count (dose: 512.0 mg/kg/injection, schedule: Q02DX009 (ip), vehicle: Klucel (hydroxypropylcellulose) (HPC)) is 10 of 10.
Consider `OCCN1CCN(CC/C=C2/c3ccccc3Sc3ccc(C(F)(F)F)cc32)CC1`, for which the survivor count is listed as 9 of 10 (dose: 0.06 mg/kg/injection, schedule: Q01DX009 (ip), vehicle: saline); 10 of 10 (dose: 0.12 mg/kg/injection, schedule: Q01DX009 (ip), vehicle: saline); 9 of 10 (dose: 4.0 mg/kg/injection, schedule: Q01DX009 (ip), vehicle: saline); 1 of 10 (dose: 8.0 mg/kg/injection, schedule: Q01DX009 (ip), vehicle: saline); 0 of 10 (dose: 16.0 mg/kg/injection, schedule: Q01DX009 (ip), vehicle: saline); 0 of 10 (dose: 32.0 mg/kg/injection, schedule: Q01DX009 (ip), vehicle: saline).
On to `NC(=S)N/N=C\c1ncnc2ccccc12`, for which the T/C (dose: 12.5 mg/kg/injection, schedule: Q01DX009 (ip), vehicle: Klucel (hydroxypropylcellulose) (HPC)) was 133 % of control and the T/C (dose: 25.0 mg/kg/injection, schedule: Q01DX009 (ip), vehicle: Klucel (hydroxypropylcellulose) (HPC)) was 129 % of control. In addition, where the note is “dose: 50.0 mg/kg/injection, schedule: Q01DX009 (ip), vehicle: Klucel (hydroxypropylcellulose) (HPC)”, the survivor count is listed as 10 of 10.
Regarding `COc1ccc2nc3cc(Cl)ccc3c(Nc3ccc(O)c(CN(CCCl)CCCl)c3)c2c1`, the T/C (dose: 2.0 mg/kg/injection, schedule: Q01DX009 (ip), vehicle: saline) is 137 % of control.
`COc1cccc2c1C(=O)c1c(O)c3c(c(O)c1C2=O)C[C@@](O)(/C(CO)=N/NC(=O)c1ccc(Cl)c(Cl)c1)C[C@@H]3OC1CC(N)C(O)C(C)O1` (stereo partly specified): the T/C reads like this: (dose: 5.0 mg/kg/injection, schedule: Q01DX001 (ip), vehicle: other) 136 % of control; (dose: 10.0 mg/kg/injection, schedule: Q01DX001 (ip), vehicle: other) 136 % of control; (dose: 20.0 mg/kg/injection, schedule: Q01DX001 (ip), vehicle: water) 136 % of control; (dose: 40.0 mg/kg/injection, schedule: Q01DX001 (ip), vehicle: other) 125 % of control; (dose: 40.0 mg/kg/injection, schedule: Q01DX001 (ip), vehicle: water) 131 % of control. The survivor count was 9 of 10 (dose: 80.0 mg/kg/injection, schedule: Q01DX001 (ip), vehicle: other) and 9 of 10 (dose: 80.0 mg/kg/injection, schedule: Q01DX001 (ip), vehicle: water).
As for `COC1CC(OC2CCC3(C)C(CCC45OC46CCC(C4=CC(=O)OC4)C6(C)CCC35)C2)OC(C)C1O` (stereo unspecified), the survivor count (dose: 6.25 mg/kg/injection, schedule: Q01DX009 (ip), vehicle: saline) is reported as 10 of 10 and the survivor count (dose: 50.0 mg/kg/injection, schedule: Q01DX009 (ip), vehicle: saline) is given as 10 of 10.
`CC(=O)OCC1OC(n2cnc3c(=S)nc[nH]c32)C(OC(C)=O)C1OC(C)=O` (stereo unspecified): the survivor count is given as 10 of 10 (dose: 200.0 mg/kg/injection, schedule: Q01DX009 (ip), vehicle: suspension in saline) and 9 of 10 (dose: 400.0 mg/kg/injection, schedule: Q01DX009 (ip), vehicle: suspension in saline).
As for `Cc1cc(N(CCCl)CCCl)ccc1C=Nc1ccccc1C(=O)O`, the T/C runs as follows: (dose: 25.0 mg/kg/injection, schedule: Q01DX009 (ip), vehicle: saline with Tween-80) 134 % of control; (dose: 50.0 mg/kg/injection, schedule: Q01DX009 (ip), vehicle: saline with Tween-80) 125 % of control [9 of 10 alive on day 9]; (dose: 100.0 mg/kg/injection, schedule: Q01DX009 (ip), vehicle: saline with Tween-80) 148 % of control; (dose: 200.0 mg/kg/injection, schedule: Q01DX009 (ip), vehicle: saline with Tween-80) 135 % of control [8 of 10 alive on day 9]. Also, under setting [1], the survivor count is 0 of 10 on day 9.
For the compound `CC(C)[S][Pb]([c]1ccccc1)([c]1ccccc1)[c]1ccccc1`, the survivor count was 10 of 10 (dose: 1.2 mg/kg/injection, schedule: Q01DX009 (ip), vehicle: gum acacia); 10 of 10 (dose: 2.5 mg/kg/injection, schedule: Q01DX009 (ip), vehicle: gum acacia); 10 of 10 (dose: 5.0 mg/kg/injection, schedule: Q01DX009 (ip), vehicle: gum acacia); 7 of 10 (dose: 10.0 mg/kg/injection, schedule: Q01DX009 (ip), vehicle: gum acacia); 0 of 10 (dose: 20.0 mg/kg/injection, schedule: Q01DX009 (ip), vehicle: gum acacia).
`Cc1cccc(C(N)=S)n1`: under “dose: 200.0 mg/kg/injection, schedule: Q01DX009 (ip), vehicle: Klucel (hydroxypropylcellulose) (HPC)”, the survivor count is 6 of 10.

These data come from PubChem BioAssay AID192 (DTP/NCI, 2004).
